Experimental data from patent US20250082781A1, “METHODS OF LOWERING BLOOD GLUCOSE AND TREATING TYPE 2 DIABETES BY ACTIVATION OF PDE4D3” (Salk Institute for Biological Studies, priority 2021, published 2025).

Experiment: Serum leptin levels after FGF1 injection
Assay type: in vivo, mouse
Conditions: 30 min after FGF1 injection

Substance: FGF1: Recombinant fibroblast growth factor 1 protein, dissolved in PBS, injected subcutaneously
- HFD-fed serum leptin (HFD-fed): 121.25 ± 6 ng/mL
- Chow -fed serum leptin (chow-fed): 0.95 ± 0.15 ng/mL
